{"source": "patent US20250090174A1", "about": "“LEFT ATRIAL APPENDAGE CLOSURE DEVICE WITH DRUG-ELUTING COMPOSITION” (BOSTON SCIENTIFIC SCIMED, INC., priority 2023, published 2025)", "tested_on": "heparinized bovine blood", "experiment": "In-vitro clot weight on drug coated PET fabric disks in heparinized bovine blood", "details": "PVDF-HFP/drug 90/10 dip coated PET disks, 37° C., ACT about 190, FIG. 18", "description": "A solution of PVDF-HFP and DOAC (direct oral anticoagulant) was prepared in 80/20 acetone/DMSO (wt/wt). The PVDF-HFP drug ratio was 90/10 (wt/wt) and the solution solids was 0.7%. […] diameter WM PET fabric disks were dip coated into the polymer/drug solution at a dip speed of […]. The coated disks were dried for […] at 125° C. in a convection oven. The drug coated disks and PVDF-HFP only control disks were placed in cups containing heparinized bovine blood adjusted to an ACT of about 190 using protamine. The cups were placed on an orbital shaker incubator at 37° C. and disks were removed at various time points and imaged. The disks were then dried and weighed to determine clot wt.", "note": "At least one structure is not confirmed: it was looked up by name or label, or the drawing left a doubt."}
{"smiles": "CN1CCc2nc(C(=O)N[C@@H]3C[C@@H](C(=O)N(C)C)CC[C@@H]3NC(=O)C(=O)Nc3ccc(Cl)cn3)sc2C1", "note": "[Edxoaban, Edoxaban]", "values": [{"measurement": "thrombus (clot weight) compared to the PVDF-HFP coated control", "result": "significantly less thrombus"}]}
